Experimental data reported in the supplement of paper PMC10849652.
Some of the results follow.

Amino acid sequences for entries named in this document (tags omitted). A change or cut given only in a name is not applied to a line headed by its entry.
UniProt Q8IXB1: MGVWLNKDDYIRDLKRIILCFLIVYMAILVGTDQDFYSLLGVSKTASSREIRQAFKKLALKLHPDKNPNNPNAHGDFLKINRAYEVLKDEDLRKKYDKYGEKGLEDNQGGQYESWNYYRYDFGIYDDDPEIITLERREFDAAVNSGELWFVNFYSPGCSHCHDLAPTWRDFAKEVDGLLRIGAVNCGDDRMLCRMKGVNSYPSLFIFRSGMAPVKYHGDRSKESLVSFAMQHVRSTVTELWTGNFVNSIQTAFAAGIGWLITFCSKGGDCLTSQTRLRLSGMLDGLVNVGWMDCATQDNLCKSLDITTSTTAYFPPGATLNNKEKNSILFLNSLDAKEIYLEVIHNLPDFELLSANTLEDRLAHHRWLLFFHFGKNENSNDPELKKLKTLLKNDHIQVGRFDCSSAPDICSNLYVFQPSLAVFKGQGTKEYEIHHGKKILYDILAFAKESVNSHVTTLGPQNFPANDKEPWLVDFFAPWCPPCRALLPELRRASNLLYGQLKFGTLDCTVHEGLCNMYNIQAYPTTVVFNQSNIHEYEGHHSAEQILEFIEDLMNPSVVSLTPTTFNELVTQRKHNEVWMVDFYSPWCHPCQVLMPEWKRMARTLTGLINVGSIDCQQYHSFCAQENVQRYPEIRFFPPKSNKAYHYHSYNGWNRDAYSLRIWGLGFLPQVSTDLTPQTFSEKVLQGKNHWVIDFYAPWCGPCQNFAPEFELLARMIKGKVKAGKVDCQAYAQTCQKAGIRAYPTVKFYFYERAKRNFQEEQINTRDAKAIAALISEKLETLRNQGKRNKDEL
UniProt P42892: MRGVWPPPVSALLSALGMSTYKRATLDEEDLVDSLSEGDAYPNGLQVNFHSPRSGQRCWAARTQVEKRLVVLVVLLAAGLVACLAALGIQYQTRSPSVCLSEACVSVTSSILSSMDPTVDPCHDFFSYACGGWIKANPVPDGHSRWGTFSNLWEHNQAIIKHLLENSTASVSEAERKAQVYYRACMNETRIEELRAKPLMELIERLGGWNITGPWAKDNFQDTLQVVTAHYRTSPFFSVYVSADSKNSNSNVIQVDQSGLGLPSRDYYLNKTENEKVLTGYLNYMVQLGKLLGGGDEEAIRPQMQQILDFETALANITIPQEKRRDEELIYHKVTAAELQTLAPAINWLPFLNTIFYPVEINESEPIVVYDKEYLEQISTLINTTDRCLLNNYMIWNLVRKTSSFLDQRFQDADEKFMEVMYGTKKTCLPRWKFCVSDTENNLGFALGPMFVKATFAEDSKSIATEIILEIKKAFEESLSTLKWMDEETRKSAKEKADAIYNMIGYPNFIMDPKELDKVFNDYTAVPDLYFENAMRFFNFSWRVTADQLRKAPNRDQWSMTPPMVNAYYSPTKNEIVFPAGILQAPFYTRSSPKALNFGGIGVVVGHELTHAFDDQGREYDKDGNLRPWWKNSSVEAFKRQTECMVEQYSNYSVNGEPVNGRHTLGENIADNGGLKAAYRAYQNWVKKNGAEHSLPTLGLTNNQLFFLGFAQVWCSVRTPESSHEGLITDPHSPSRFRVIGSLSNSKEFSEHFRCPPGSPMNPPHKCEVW
UniProt Q01658: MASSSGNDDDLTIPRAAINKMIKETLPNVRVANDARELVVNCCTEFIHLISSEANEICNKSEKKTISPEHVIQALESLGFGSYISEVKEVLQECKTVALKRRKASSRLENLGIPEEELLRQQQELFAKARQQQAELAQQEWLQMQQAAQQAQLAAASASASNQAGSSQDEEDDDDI
UniProt O00429, whole entry, looked up: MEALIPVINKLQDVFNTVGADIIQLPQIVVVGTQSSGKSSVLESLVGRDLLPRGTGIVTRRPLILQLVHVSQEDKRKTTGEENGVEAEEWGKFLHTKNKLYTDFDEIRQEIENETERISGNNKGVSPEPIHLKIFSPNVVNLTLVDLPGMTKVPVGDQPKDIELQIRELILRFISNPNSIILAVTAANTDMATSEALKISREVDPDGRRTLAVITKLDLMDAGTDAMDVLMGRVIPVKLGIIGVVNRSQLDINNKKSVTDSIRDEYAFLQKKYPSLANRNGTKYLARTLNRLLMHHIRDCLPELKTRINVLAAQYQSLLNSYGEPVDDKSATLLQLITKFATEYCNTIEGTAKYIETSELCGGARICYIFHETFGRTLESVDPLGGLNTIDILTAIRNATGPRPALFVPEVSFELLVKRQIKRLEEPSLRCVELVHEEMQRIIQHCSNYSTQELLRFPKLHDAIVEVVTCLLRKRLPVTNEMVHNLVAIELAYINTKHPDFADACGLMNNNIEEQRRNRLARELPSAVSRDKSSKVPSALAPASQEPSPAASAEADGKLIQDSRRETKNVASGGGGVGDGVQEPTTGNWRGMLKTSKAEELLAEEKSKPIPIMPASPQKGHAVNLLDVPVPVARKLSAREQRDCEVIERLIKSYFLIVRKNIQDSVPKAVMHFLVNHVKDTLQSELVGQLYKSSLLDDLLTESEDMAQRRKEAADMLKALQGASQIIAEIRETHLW
UniProt P60981: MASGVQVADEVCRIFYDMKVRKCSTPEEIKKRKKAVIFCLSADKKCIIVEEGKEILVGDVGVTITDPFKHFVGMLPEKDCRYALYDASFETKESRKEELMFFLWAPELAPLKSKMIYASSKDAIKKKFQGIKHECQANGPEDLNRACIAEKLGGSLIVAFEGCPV
UniProt P25685, whole entry, looked up: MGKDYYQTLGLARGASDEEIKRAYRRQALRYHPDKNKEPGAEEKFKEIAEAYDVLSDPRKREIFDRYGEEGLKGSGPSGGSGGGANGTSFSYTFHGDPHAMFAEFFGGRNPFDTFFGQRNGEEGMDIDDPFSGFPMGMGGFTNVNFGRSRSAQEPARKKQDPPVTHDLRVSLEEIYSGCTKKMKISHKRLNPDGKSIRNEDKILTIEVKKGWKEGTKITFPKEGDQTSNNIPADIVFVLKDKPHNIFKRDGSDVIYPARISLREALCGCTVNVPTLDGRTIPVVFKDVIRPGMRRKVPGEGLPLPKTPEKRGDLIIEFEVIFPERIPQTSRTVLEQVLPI
UniProt Q9Y3R5: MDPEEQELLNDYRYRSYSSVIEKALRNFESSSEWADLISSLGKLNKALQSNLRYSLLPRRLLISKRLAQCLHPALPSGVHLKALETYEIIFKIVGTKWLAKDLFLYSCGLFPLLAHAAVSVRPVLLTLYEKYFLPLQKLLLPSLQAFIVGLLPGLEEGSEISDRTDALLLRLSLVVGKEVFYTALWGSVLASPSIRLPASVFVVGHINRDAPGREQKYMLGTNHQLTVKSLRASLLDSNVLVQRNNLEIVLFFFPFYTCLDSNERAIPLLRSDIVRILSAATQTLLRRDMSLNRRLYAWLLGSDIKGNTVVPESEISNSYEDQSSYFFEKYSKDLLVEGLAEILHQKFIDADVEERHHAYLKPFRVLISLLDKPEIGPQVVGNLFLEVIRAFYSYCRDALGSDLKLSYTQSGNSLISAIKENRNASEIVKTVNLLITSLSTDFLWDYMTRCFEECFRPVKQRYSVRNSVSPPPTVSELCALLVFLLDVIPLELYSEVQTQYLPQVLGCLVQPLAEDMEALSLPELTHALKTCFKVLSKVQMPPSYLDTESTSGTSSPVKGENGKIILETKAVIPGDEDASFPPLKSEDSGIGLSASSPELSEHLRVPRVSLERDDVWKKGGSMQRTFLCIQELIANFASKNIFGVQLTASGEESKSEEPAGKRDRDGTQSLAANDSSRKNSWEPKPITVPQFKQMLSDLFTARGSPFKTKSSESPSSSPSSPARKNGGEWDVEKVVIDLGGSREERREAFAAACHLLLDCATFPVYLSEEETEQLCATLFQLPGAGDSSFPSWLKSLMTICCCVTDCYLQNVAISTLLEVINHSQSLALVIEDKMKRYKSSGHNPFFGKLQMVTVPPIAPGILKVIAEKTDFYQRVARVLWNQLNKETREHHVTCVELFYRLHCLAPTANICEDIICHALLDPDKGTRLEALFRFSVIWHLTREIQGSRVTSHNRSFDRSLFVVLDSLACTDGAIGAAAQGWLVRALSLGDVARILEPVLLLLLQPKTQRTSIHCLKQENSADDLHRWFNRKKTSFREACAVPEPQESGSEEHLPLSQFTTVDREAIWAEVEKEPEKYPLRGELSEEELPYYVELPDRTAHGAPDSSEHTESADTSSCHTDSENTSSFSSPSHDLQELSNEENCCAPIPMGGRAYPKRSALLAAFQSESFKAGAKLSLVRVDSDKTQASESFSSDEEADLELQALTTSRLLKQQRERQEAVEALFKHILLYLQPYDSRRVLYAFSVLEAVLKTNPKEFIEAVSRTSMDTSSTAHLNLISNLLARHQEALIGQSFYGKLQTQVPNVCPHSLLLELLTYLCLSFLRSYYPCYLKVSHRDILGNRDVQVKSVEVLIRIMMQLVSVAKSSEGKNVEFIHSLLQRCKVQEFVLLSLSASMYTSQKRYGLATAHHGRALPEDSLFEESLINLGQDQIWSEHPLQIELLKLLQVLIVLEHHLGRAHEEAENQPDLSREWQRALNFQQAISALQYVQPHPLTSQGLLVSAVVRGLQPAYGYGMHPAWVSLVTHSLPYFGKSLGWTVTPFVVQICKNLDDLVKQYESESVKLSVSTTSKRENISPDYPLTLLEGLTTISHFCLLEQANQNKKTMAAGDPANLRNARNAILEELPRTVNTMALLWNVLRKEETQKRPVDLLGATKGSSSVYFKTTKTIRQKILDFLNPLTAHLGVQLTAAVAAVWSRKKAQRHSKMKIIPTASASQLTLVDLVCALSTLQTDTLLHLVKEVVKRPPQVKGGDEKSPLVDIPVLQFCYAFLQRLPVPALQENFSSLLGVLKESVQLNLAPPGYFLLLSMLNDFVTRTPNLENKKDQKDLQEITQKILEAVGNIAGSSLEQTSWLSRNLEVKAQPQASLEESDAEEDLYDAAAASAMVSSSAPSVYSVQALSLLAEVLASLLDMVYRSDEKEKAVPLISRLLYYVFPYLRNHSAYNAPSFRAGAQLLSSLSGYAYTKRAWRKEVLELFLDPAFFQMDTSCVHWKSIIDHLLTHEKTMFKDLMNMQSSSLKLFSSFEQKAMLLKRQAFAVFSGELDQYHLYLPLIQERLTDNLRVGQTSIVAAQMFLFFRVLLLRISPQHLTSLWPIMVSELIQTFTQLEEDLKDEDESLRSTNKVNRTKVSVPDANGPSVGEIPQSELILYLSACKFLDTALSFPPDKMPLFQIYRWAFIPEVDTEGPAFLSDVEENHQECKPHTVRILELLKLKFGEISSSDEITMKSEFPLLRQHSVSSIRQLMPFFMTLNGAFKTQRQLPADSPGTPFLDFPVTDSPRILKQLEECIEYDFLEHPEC
UniProt Q15125: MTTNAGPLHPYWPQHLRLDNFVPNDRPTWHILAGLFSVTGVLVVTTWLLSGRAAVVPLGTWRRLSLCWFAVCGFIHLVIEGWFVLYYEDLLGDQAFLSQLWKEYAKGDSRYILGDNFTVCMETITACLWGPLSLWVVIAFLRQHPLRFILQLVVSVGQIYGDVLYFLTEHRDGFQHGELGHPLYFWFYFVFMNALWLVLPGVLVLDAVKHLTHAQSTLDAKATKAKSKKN
UniProt Q92785, whole entry, looked up: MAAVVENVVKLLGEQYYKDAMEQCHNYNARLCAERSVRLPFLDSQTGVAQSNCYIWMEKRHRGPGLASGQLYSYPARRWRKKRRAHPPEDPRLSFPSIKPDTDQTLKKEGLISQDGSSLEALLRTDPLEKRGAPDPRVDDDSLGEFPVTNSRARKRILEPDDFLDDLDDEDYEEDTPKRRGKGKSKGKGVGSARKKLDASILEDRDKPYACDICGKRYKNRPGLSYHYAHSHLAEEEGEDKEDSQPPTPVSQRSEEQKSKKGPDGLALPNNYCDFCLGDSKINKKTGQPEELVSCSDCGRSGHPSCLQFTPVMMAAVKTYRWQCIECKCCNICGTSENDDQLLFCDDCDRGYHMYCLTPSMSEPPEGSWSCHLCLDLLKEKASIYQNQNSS
UniProt Q13409, whole entry, looked up: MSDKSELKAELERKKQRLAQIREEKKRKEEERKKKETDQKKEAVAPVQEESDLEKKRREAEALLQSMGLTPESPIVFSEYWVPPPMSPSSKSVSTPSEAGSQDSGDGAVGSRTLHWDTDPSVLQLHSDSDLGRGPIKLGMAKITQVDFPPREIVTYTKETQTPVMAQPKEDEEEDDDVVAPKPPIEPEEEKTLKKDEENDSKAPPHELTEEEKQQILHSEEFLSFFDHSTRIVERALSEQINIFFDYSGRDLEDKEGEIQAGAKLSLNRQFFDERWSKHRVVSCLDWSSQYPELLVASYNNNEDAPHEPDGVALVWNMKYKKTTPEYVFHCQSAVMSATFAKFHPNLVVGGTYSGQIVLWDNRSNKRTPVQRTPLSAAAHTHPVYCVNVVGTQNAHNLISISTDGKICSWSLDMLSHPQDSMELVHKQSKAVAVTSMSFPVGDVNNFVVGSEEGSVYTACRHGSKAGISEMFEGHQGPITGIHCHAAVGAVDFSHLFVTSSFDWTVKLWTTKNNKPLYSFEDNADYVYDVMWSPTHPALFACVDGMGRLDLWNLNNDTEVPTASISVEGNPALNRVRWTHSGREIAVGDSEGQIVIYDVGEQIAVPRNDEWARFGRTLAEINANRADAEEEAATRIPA

Columns and labels:
Experiment in all cases: log2 fold change, soluble protein after heating vs DMSO (PISA); higher = thermal stabilisation; K562 cells, 10 uM, 30 min; active = over 0.2 and 3.5 SD of the protein, either way, in both replicates (recomputed)
[1] = compound: C1=CC=C(C=C1)[C@H](COC2=CC3=C(C=C2)NC(=O)N3)NC(=O)C4=CC=CN(C4=O)CC5=CC(=C(C=C5)F)F
Outline: (§1)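 K562 cells at 2×10^6 cells/mL were treated with 10 μM compound for 30 min. Aliquots were heated for 3 min across 48°C-58°C, pooled, and extracted in PBS with 0.5% NP-40 at 4°C; soluble protein was the supernatant after 21,000xg for 90 min. Soluble protein was quantified by TMTpro 16plex LC-MS/MS with channel sums equalised, and reported as log2 fold change in thermal stability against DMSO controls, with values from duplicates.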

[2] = compound: CC1=C(SC2=C1C(=N[C@H](C3=NN=C(N32)C)CC(=O)N)C4=CC=C(C=C4)Cl)C
Outline: as §1

[3] = compound: CC1=C2C(=CC=C1)N=C(N(C2=O)C3=CC=CC=C3C)CN4C=NC5=C(N=CN=C54)N
Outline: as §1

[4] = compound: Cc1sc2c(c1C)C(c1ccc(Cl)cc1)=N[C@@H](CC(=O)OC(C)(C)C)c1nnc(C)n1-2
Outline: as §1

[5] = compound: c1ccc([C@@H]2C[C@H]2NC2CCNCC2)cc1
Outline: as §1

Measured: log2 fold change

DNAJC10 (UniProt Q8IXB1)
inactive: [1] 0.084 | [2] -0.057 | [3] -0.066 | [4] 0.015 | [5] -0.048

DNAJC17 (UniProt Q9NVM6)
inactive: [1] 0.001 | [2] 0.104 | [3] 0.066 | [4] 0.013 | [5] -0.005

DOK1 (UniProt Q99704)
inactive: [1] -0.063 | [2] 0.052 | [3] 0.049 | [4] -0.05 | [5] -0.054

DPP7 (UniProt Q9UHL4)
inactive: [1] 0.039 | [2] 0.024 | [3] 0.032 | [4] 0.019 | [5] 0.028

DOCK11 (UniProt Q5JSL3)
inactive: [1] -0.045 | [2] 0.045 | [3] 0.089 | [4] 0.02 | [5] -0.004

DPY19L1, A0A1B0GW05
inactive: [1] -0.014 | [2] -0.043 | [3] -0.156 | [4] -0.092 | [5] 0.074

ECE1 (UniProt P42892)
inactive: [1] 0.039 | [2] 0.085 | [3] 0.067 | [4] 0.058 | [5] -0.045

DR1 (UniProt Q01658)
inactive: [1] -0.063 | [2] 0.02 | [3] 0.094 | [4] -0.021 | [5] 0.052

DNM1L isoform 6 (UniProt O00429)
inactive: [1] -0.03 | [2] 0.038 | [3] 0.072 | [4] -0.011 | [5] -0.034

Reprinted from the entries so far (two entries):
ECE1 (UniProt P42892)
inactive: [1] 0.039 | [2] 0.085 | [3] 0.067 | [4] 0.058 | [5] -0.045

DR1 (UniProt Q01658)
inactive: [1] -0.063 | [2] 0.02 | [3] 0.094 | [4] -0.021 | [5] 0.052

Additional entries.

DSTN (UniProt P60981)
inactive: [1] -0.063 | [2] 0.015 | [3] 0.055 | [4] 0.005 | [5] -0.002

DNAJB1 (UniProt P25685)
inactive: [1] -0.019 | [2] 0.015 | [3] 0.066 | [4] -0.003 | [5] -0.026

DOP1B (UniProt Q9Y3R5)
inactive: [1] -0.048 | [2] 0.112 | [3] 0.139 | [4] 0 | [5] 0.086

EBP (UniProt Q15125)
inactive: [1] -0.009 | [2] 0.082 | [3] 0.087 | [4] -0.031 | [5] 0.06

DPF2 (UniProt Q92785)
inactive: [1] 0.051 | [2] -0.037 | [3] 0.004 | [4] 0.012 | [5] 0.075

DUS1L (UniProt Q6P1R4)
inactive: [2] -0.097 | [4] 0.147 | [5] 0.033

DNAJC25 (UniProt Q9H1X3)
inactive: [1] 0.083 | [4] -0.01

DPY19L2 (UniProt Q6NUT2)
inactive: [1] -0.078 | [3] -0.17 | [4] -0.059

DYNC1I2 isoform 2 (UniProt Q13409)
inactive: [1] 0.028 | [2] -0.059 | [4] -0.068 | [5] 0.14
